Measurements: publication PMC12736535, “Generation and Characterization of Novel Contilisant+Tubastatin a Multitarget Small Molecules Against Glioblastoma” (Pharmaceutics, 2025)

Test system: GNS166 cells
Assay: Proteomics (label-free nLC MS/MS)
Format: cell-based, human
Conditions: 5 µM, GNS166, vs controls

| Structure (SMILES) | differentially upregulated proteins (proteomics) | downregulated proteins (proteomics) |
| --- | --- | --- |
| CCCNNC(=O)c1ccc(S(=O)(=O)n2ccc3cc(OCCCN4CCCCC4)ccc32)cc1 [FRB44] | 1292 | 1235 |
| C#CCN1CCN(CCCOc2ccc3c(ccn3S(=O)(=O)c3ccc(C(=O)NNCCC)cc3)c2)CC1 [FRB56] | 949 | 1132 |
